# Laboratory results published in the supplement of paper PMC10338343.
# ± gives the standard deviation. This is a selection; strong and weak results do not stand in their true shares. Many entries were measured with a wide error.
# Test system: MILI (PIWIL2) piRISC loaded with piRNA #1 (26 nt)
# Assay: pre-steady-state target cleavage rate (min^-1); MIWI and MILI are mouse PIWI proteins and EfPiwi is from a freshwater sponge; tags in brackets are library labels; higher = faster piRNA-guided slicing of the target
# Conditions: guide: piRNA #1 5'p-UGAGGUAGUAGGUUGUAUAGUAUCCA; auxiliary factor: 500 nM mouse GTSF1
# Procedure, shortened: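 Cleave-'n-Seq reactions paired 0.1 nM transcribed, DNA-blocked target RNA library with 1 nM active affinity-purified piRISC holding one synthetic guide, plus or minus 500 nM GTSF1 partner protein, in HEPES–potassium acetate buffer at 33 °C for 0–8 or 0–960 min. After sequencing of uncleaved targets and normalisation to depth and weakly complementary targets, the pre-steady-state cleavage rate was taken from a burst-and-steady-state fit. Three trials were pooled, and k3 was capped at 0.0001 min^-1.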
row,Sequence,pre-steady-state target cleavage rate
1,GGAGACGAUACUAUACAACCCUACUACCUCA,0.0031 ± 0.0035
2,GGAGUGGAUACUAUACAACCUACUAGCUGA,0.00113 ± 0.0027
3,GGAGAGGAUACUAUACACACCUACUACCUCA,0.00289 ± 0.0044
4,GGAGACCUUACUAUACAACCUAUACCUCA,0.00221 ± 0.0035
5,GGAGACCUAUGAUUACAACCUACUACCGUCA,0.00492 ± 0.0022
6,GGAGACCUUACUAUACAACCUGACUACCUCA,0.00196 ± 0.0041
7,GGAGACCUAUGAAUGACAACCUACUACCUCA,0.00305 ± 0.0041
8,GGAGACCUAUGAUAUCAACCUCUACCUCA,0.0001 ± 0.04
9,GGAGACCUAUGUAUACAACCUUACUACCUCA,0.0023 ± 0.0024
10,GGAGACCUAUGAUAACACCUACUACCUCA,0.000842 ± 0.0081
11,GGAGACCUAUGAUAUGUUGCUAAUACCUCA,0.000535 ± 0.013
12,GGAGAGGAUACUAUACAACCUAGUUCCUCA,0.000425 ± 0.011
13,GGAGACCUAUGAUAUCAACGUACUACCUGA,0.000836 ± 0.0095
14,GGAGACCUAUGAUAUGUUGGUACUCACCUCA,0.000209 ± 0.024
15,GGAGUGGAUACUAUACAAUCCUACUACCUCA,0.00125 ± 0.005
16,GGAGUGGAUACUAUACAACCUACAACCACA,0.00154 ± 0.0035

# Part of the list above, bar-delimited:
row | Sequence | pre-steady-state target cleavage rate
5 | GGAGACCUAUGAUUACAACCUACUACCGUCA | 0.00492 ± 0.0022
6 | GGAGACCUUACUAUACAACCUGACUACCUCA | 0.00196 ± 0.0041
